# Source: the supplement of paper PMC5949888
# Most values lie at the floor of the assay. Slopes are relative: functional sequences can read slightly below zero.
# Test system: Saccharomyces cerevisiae PS128 hsf1 delta, HSF1(1-493) fusion
# Experiment: growth estimate (transactivation domain function in HSF1 fusion, heat-shock survival) (a.u. (slope of normalised read count over time)); higher = stronger growth at 37°C, i.e. more transactivation activity
# Details: library: random library
row,Substance,growth estimate
1,LLQGGPHRLVAGKGSSSHSG,< -0.25
2,LLQRFLTTAWD,0.109
3,LLQRRY,< -0.25
4,LLRAF,< -0.25
5,LLRAHHRLYWGDPKSLLTFP,< -0.25
6,LLRFNAGKSVRLNAVGPARE,< -0.25
7,LLRGNPGNGETKVGAKVPGS,< -0.25
8,LLRHLRHFM,< -0.25
9,LLRPGSARGGIT,< -0.25
10,LLRPKGVQLYLSMHGGDVKV,< -0.25
11,LLRPWGTRLE,< -0.25
12,LLRTLFGCNLWKHPAAASLP,< -0.25
13,LLRTRKRI,< -0.25
14,LLRWSVVEYL,< -0.25
15,LLSDSVFIAAYAWSTRLSGP,< -0.25
16,LLSDVTGRLLARMTKRTSLG,-0.245
17,LLSRASEGADSSSSLRGATS,< -0.25
18,LLSSSESGALLFAMASVFVG,< -0.25
19,LLSVCNLSRPGVREA,< -0.25
20,LLSYCWPCVGRGWPWTRSYV,< -0.25
21,LLSYRG,< -0.25
22,LLSYYRGCMLRVCSGASRRA,< -0.25
23,LLVAIREGTLCFEVGWSVAK,< -0.25
24,LLVCKSDLLPCIQVLKLSIV,< -0.25
25,LLVG,< -0.25

row,Substance,growth estimate
1,LLVIPLLGHRKRRYG,< -0.25
2,LLVQFPASGV,< -0.25
3,LLVSRLHTAPATRTLRVGSV,< -0.25
4,LLVTSGPSYAWSAL,< -0.25
5,LLVWLEVYVSAPLLVCPLAW,< -0.25
6,LLWPDAIDVGQMWLFY,< -0.25
7,LLWRRVVLRWGRCSQQKART,< -0.25
8,LLYAELGQKSEEDVRV,< -0.25
9,LLYEGSAAIV,< -0.25
10,LLYSTKYTARS,< -0.25
11,LLYYAG,< -0.25
12,LMDCLNVTRVARS,< -0.25
13,LMERAVRQRVVVILTKGFTD,< -0.25
14,LMFAALGCYVPSGVHSPPLR,< -0.253
15,LMFIV,< -0.25
16,LMGGVNRSTV,< -0.25
17,LMGPTEVLLETRIVH,-0.246
18,LMGYRIEASANGW,< -0.25
19,LMHAVCDEEIDAKWRGVFKA,< -0.25
20,LMIGGRNWPSAHANCP,< -0.25
21,LMKLSGSGEDQCPTEVAVTT,< -0.25
22,LMLVWEVMIRTEAVYHGRPL,< -0.25
23,LMNNSEGRGIEGIASRGLRW,< -0.25
24,LMPD,< -0.25
25,LMPLLSSFYCSFGRYDH,< -0.25

# Reformatted with bars between the fields: part of the list above
row | Substance | growth estimate
19 | LLSVCNLSRPGVREA | < -0.25
20 | LLSYCWPCVGRGWPWTRSYV | < -0.25
21 | LLSYRG | < -0.25

# Further entries

row,Substance,growth estimate
1,LMPREV,< -0.25
2,LMRNWPGLNILTL,< -0.25
3,LMSFWRTLIVIV,< -0.25
4,LMSKR,< -0.25
5,LMWTLARLHAVELALEARAR,< -0.25
6,LNAMEGTWLAGYQTTVNPFR,-0.246
7,LNDPAGTPRRRLET,< -0.25
8,LNEGCTCTQGPVPAGGVYVS,< -0.25
9,LNESAT,< -0.25
10,LNFLTYKDLQR,< -0.25
11,LNHIGWQFRVALSAWLASSR,< -0.25
12,LNLGPWKA,< -0.25
13,LNLSRPRPALGSDGVITAWG,< -0.25
14,LNLTIGAVPRSIGHPSL,< -0.25
15,LNLVRDEFVYE,< -0.25
16,LNNTRWGRT,< -0.25
17,LNPLRESGSSRYPLTTDTD,< -0.25
18,LNPVPE,< -0.25
19,LNRR,< -0.25
20,LNSGLTHGPHNEQSQGPRNL,< -0.25
21,LNSLAVNCFTGSRESCLVTQ,< -0.25
22,LNTGILIPDTCVGLVR,< -0.25
23,LNTLDSVSFIGIDLGVAHCI,< -0.25
24,LNV,< -0.25
25,LNVTQ,< -0.25

row,Substance,growth estimate
1,LNVTRALDIRYQFKRHLQDT,< -0.25
2,LNWDGSMRTSWCRTHRTVAK,< -0.25
3,LNYRWFFSLRESTQMSLGHH,-0.243
4,LPAALW,< -0.25
5,LPALDLTSKLCYAQFQPPND,< -0.25
6,LPCCKVPPKLVGYRRSFTGR,< -0.25
7,LPCGEYDVLFRFTAIGGVNL,< -0.25
8,LPCTRYETI,< -0.25
9,LPDGRI,< -0.25
10,LPDSEISRRRRVMPLAGVFR,< -0.25
11,LPEAPKVIYRQAS,< -0.25
12,LPERQW,< -0.25
13,LPF,< -0.25
14,LPGAAWSRNSRTCSPGLSRV,< -0.25
15,LPGLGLSKMPRGGVWGNLRP,< -0.25
16,LPGTPADRVKGVGGANIEWA,< -0.25
17,LPGVDWVVHV,< -0.25
18,LPHPKVV,< -0.25
19,LPIRKIEAGSRGVTGGTVNR,< -0.25
20,LPIRRNLYGGNDTLSYQV,< -0.25
21,LPKVVGRNYTRILYSLKTPA,< -0.25
22,LPL,< -0.25
23,LPLCRPPQGSRLRNLAEDSK,< -0.25
24,LPLLERAGGDPRCRNRRVCR,< -0.25
25,LPMRSLSGSPFSGWSALQEE,< -0.25
